# The list shows a part of the results.
# B1: RetS (Pseudomonas aeruginosa), Q9HUV7 (protein)
# chain: MVRLRIAIGLLVSFLLLLLGPMSPAVADDAGVSSVPLQTTATTPSANQNWRLLRDESAQLRIADVLQRKEQFRPLAKRSFIFPASPQAVWLQVQLPAQKVPSWLWIFAPRVQYLDYYLVQDGQLVRDQHTGESRPFQERPLPSRSYLFSLPVDGKPMTLYVRMTSNHPLMAWFDQIDEAGLVGLEKPAYAFGMLLGGMLLLLMYNLIRFAYSRSASSLWLAAVHAALAVCAAANLGLVAFWLPGLKFNQSLTADLGALGAAVSLLWFACSFFRGTAESRLNRLLQGEALLILAVGAIIAFTQQLWFSWLIYLLVILSSLSVPLIAAWHWYRGYQPARLIVAGMIVFNAGFMVFLPVLFGTKQLDPGWLVLGVFSFATLAGLVLSVSLTERQRLIQQLNLQQRTSEAAHTAELQTKAEFLAKISHEIRTPMNGVLGMTELLLGTPLSAKQRDYVQTIHSAGNELLTLINEILDISKLESGQIELDEVQFDLNALIEDCLDIFRVKAEQQRIELISFTQPQVPRVIGGDPTRLRQVVLSLLDNAFKQTEEGEILLVVALDDQGETPRLRIAVQDSGHPFDAKEREALLTAELHSGDFLSASKLGSHLGLIIARQLVRLMGGEFGIQSGSSQGTTLSLTLPLDPQQLENPTADLDGPLQGARLLVVDDNETCRKVLVQQCSGWGLNVSAVSSGKEALAQLRTKAHLREYFDVVLLDQDMPGMTGMQLAAKIKEDPNLNHDILLIMLTGISNAPSKIIARNAGIKRILAKPVAGYTLKATLADELAQRGVSGVTNYLQPAKEAQAPSLPSDFRILVAEDNSISTKVIRGMLNKLNLQPDTASNGQEALSAMKATQYDLVLMDCEMPVLDGFSATEQLRAWEAHEQRPHTPVVALTAHILSEHKERARLVGMDGHMAKPVELSQLRELIAYWVGERDRRRQGDALPS
# What was measured:
# Assay in all cases: glycan array binding signal (z-score within array); higher = stronger binding
# Conditions in all cases: glycan notation: IUPAC condensed, linker removed
# [1] = target: Gal(b1-4)GlcNAc(b1-2)Man(a1-3)[Gal(b1-4)GlcNAc(b1-2)Man(a1-6)]Man(b1-4)GlcNAc(b1-4)GlcNAc
# Outline: (§1)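 Columns mapping to the same glycan were averaged after glycan names were converted to IUPAC-condensed notation. The data come from 3228 arrays in the Consortium for Functional Glycomics database, limited to those with an available protein sequence. Binding is reported as a within-array Z-score averaged across arrays of one protein sequence and across linkers.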
# [2] = target: Gal(b1-4)GlcNAc(b1-2)Man(a1-3)[Gal(b1-4)GlcNAc(b1-2)Man(a1-6)]Man(b1-4)GlcNAc(b1-4)[Fuc(a1-6)]GlcNAc
# Outline: as §1
# [3] = target: Gal(b1-4)GlcNAc(b1-2)Man(a1-3)[Gal(b1-4)GlcNAc(b1-2)][GlcNAc(b1-4)]Man(b1-4)GlcNAc(b1-4)GlcNAc
# Outline: as §1
# [4] = target: Gal(b1-4)GlcNAc(b1-2)Man(a1-3)[GlcNAc(b1-2)Man(a1-6)]Man(b1-4)GlcNAc(b1-4)GlcNAc
# Outline: as §1
# [5] = target: Gal(b1-4)GlcNAc(b1-2)Man(a1-3)[Man(a1-6)]Man(b1-4)GlcNAc(b1-4)GlcNAc
# Outline: as §1
# [6] = target: Gal(b1-4)GlcNAc(b1-2)Man(a1-6)Man(b1-4)GlcNAc(b1-4)GlcNAc
# Outline: as §1
# [7] = target: Gal(b1-4)GlcNAc(b1-2)Man(a1-6)[GlcNAc(b1-2)Man(a1-3)]Man(b1-4)GlcNAc(b1-4)GlcNAc
# Outline: as §1
# [8] = target: Gal(b1-4)GlcNAc(b1-2)Man(a1-6)[Man(a1-3)]Man(b1-4)GlcNAc(b1-4)GlcNAc
# Outline: as §1
# [9] = target: Gal(b1-4)GlcNAc(b1-2)[Gal(b1-4)GlcNAc(b1-4)]Man(a1-3)[Gal(b1-4)GlcNAc(b1-2)Man(a1-6)]Man(b1-4)GlcNAc(b1-4)GlcNAc
# Outline: as §1
# [10] = target: Gal(b1-4)GlcNAc(b1-2)[Gal(b1-4)GlcNAc(b1-4)]Man(a1-3)[Gal(b1-4)GlcNAc(b1-2)[Gal(b1-4)GlcNAc(b1-6)]Man(a1-6)]Man(b1-4)GlcNAc(b1-4)GlcNAc
# Outline: as §1
# [11] = target: Gal(b1-4)GlcNAc(b1-2)[Gal(b1-4)GlcNAc(b1-4)]Man(a1-3)[GlcNAc(b1-4)][Gal(b1-4)GlcNAc(b1-2)Man(a1-6)]Man(b1-4)GlcNAc(b1-4)GlcNAc
# Outline: as §1
# [12] = target: Gal(b1-4)GlcNAc(b1-2)[Gal(b1-4)GlcNAc(b1-4)]Man(a1-3)[GlcNAc(b1-4)][Gal(b1-4)GlcNAc(b1-2)[Gal(b1-4)GlcNAc(b1-6)]Man(a1-6)]Man(b1-4)GlcNAc(b1-4)GlcNAc
# Outline: as §1
# [13] = target: Gal(b1-4)GlcNAc(b1-2)[Gal(b1-4)GlcNAc(b1-6)]Man(a1-6)[Gal(b1-4)GlcNAc(b1-2)Man(a1-3)]Man(b1-4)GlcNAc(b1-4)GlcNAc
# Outline: as §1
# [14] = target: Gal(b1-4)GlcNAc(b1-2)[Gal(b1-4)GlcNAc(b1-6)]Man(a1-6)[GlcNAc(b1-4)][Gal(b1-4)GlcNAc(b1-2)Man(a1-3)]Man(b1-4)GlcNAc(b1-4)GlcNAc
# Outline: as §1
# [15] = target: Gal(b1-4)GlcNAc(b1-3)Gal(b1-3)GlcNAc
# Outline: as §1
# [16] = target: Gal(b1-4)GlcNAc(b1-3)Gal(b1-4)Glc
# Outline: as §1
# [17] = target: Gal(b1-4)GlcNAc(b1-3)Gal(b1-4)GlcNAc
# Outline: as §1
# [18] = target: Gal(b1-4)GlcNAc(b1-3)Gal(b1-4)GlcNAc(b1-3)Gal(b1-4)GlcNAc
# Outline: as §1
# [19] = target: Gal(b1-4)GlcNAc(b1-3)Gal(b1-4)[Fuc(a1-3)GlcNAc(b1-6)]Gal(b1-4)Glc
# Outline: as §1
# [20] = target: Gal(b1-4)GlcNAc(b1-3)Gal(b1-4)[Fuc(a1-3)]GlcNAc(b1-3)Gal(b1-4)[Fuc(a1-3)]GlcNAc
# Outline: as §1
# [21] = target: Gal(b1-4)GlcNAc(b1-3)GalNAc
# Outline: as §1
# [22] = target: Gal(b1-4)GlcNAc(b1-3)[Gal(b1-4)GlcNAc(b1-6)]Gal(b1-4)GlcNAc
# Outline: as §1
# [23] = target: Gal(b1-4)GlcNAc(b1-3)[Gal(b1-4)GlcNAc(b1-6)]GalNAc
# Outline: as §1
# [24] = target: Gal(b1-4)GlcNAc(b1-3)[GlcNAc(b1-6)]Gal(b1-4)GlcNAc
# Outline: as §1
# [25] = target: Gal(b1-4)GlcNAc(b1-6)Gal(b1-4)GlcNAc
# Outline: as §1
# [26] = target: Gal(b1-4)GlcNAc(b1-6)GalNAc
# Outline: as §1
# [27] = target: Gal(b1-4)GlcNAc(b1-6)[Gal(b1-3)]GalNAc
# Outline: as §1
# Gal(b1-6)Gal = target: Gal(b1-6)Gal
# Outline: as §1
# Gal3S(b1-3)GalNAc = target: Gal3S(b1-3)GalNAc
# Outline: as §1
# Gal3S(b1-3)GlcNAc = target: Gal3S(b1-3)GlcNAc
# Outline: as §1
binder,measurement,setting,value
B1,glycan array binding signal (z-score),[1],-0.891
same,glycan array binding signal (z-score),[2],1.97
same,glycan array binding signal (z-score),[3],1.38
same,glycan array binding signal (z-score),[4],2.37
same,glycan array binding signal (z-score),[5],-0.317
same,glycan array binding signal (z-score),[6],-0.932
same,glycan array binding signal (z-score),[7],0.441
same,glycan array binding signal (z-score),[8],-0.39
same,glycan array binding signal (z-score),[9],-0.305
same,glycan array binding signal (z-score),[10],0.39
same,glycan array binding signal (z-score),[11],0.172
same,glycan array binding signal (z-score),[12],0.46
same,glycan array binding signal (z-score),[13],1.43
same,glycan array binding signal (z-score),[14],-2.35
same,glycan array binding signal (z-score),[15],0.908
same,glycan array binding signal (z-score),[16],-0.391
same,glycan array binding signal (z-score),[17],-1.4
same,glycan array binding signal (z-score),[18],-0.266
same,glycan array binding signal (z-score),[19],-0.73
same,glycan array binding signal (z-score),[20],-0.725
same,glycan array binding signal (z-score),[21],-0.104
same,glycan array binding signal (z-score),[22],-1.17
same,glycan array binding signal (z-score),[23],-0.009
same,glycan array binding signal (z-score),[24],-0.037
same,glycan array binding signal (z-score),[25],0.147
same,glycan array binding signal (z-score),[26],-0.198
same,glycan array binding signal (z-score),[27],0
same,glycan array binding signal (z-score),Gal(b1-6)Gal,0.844
same,glycan array binding signal (z-score),Gal3S(b1-3)GalNAc,0.755
same,glycan array binding signal (z-score),Gal3S(b1-3)GlcNAc,-0.199

# Part of the list above, tab-delimited.
binder	measurement	setting	value
B1	glycan array binding signal (z-score)	[7]	0.441
same	glycan array binding signal (z-score)	Gal(b1-6)Gal	0.844

# From the supplement of paper PMC8728848
